In the supplement of paper PMC12067093, “Discovery and optimisation of a covalent ligand for TRIM25 and its application to targeted protein ubiquitination” (Chemical Science, 2025):
The other results are listed elsewhere or left out.

By UniProt entry, the sequences of proteins in these tests, tags left out. Where a name states a change or a piece, a line headed by the entry shows the natural chain unless it says otherwise.
UniProt Q13615: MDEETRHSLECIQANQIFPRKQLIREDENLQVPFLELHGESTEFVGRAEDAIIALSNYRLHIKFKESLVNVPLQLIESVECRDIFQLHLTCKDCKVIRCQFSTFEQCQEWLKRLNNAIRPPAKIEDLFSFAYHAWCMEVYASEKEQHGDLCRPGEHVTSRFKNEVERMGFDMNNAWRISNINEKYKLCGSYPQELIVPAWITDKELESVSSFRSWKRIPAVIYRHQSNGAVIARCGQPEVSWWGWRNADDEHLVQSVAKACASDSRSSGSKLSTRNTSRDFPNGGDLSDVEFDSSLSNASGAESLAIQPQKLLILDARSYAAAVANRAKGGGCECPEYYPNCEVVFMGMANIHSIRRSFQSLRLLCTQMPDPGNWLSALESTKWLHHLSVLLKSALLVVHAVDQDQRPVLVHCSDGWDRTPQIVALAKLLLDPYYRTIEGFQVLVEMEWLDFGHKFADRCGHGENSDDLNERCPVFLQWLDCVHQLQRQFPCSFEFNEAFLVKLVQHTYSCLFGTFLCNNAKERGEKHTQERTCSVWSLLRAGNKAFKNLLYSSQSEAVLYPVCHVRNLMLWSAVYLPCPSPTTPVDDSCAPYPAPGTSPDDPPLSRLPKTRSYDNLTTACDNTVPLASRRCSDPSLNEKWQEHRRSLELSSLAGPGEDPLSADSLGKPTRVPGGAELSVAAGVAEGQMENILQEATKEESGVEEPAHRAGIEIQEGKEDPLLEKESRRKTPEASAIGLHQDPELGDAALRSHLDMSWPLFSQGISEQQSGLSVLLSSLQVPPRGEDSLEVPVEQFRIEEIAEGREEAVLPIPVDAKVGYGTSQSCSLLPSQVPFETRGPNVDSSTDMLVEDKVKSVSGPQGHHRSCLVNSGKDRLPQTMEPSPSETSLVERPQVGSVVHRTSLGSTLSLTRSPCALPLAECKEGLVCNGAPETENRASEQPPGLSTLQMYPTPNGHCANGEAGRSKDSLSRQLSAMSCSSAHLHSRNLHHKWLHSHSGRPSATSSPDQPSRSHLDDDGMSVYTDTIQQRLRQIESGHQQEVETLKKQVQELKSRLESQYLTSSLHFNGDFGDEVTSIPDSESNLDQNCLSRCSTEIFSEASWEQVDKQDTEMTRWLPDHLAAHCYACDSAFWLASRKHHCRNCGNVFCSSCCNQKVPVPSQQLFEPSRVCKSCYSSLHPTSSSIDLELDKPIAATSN
UniProt Q9BUK6: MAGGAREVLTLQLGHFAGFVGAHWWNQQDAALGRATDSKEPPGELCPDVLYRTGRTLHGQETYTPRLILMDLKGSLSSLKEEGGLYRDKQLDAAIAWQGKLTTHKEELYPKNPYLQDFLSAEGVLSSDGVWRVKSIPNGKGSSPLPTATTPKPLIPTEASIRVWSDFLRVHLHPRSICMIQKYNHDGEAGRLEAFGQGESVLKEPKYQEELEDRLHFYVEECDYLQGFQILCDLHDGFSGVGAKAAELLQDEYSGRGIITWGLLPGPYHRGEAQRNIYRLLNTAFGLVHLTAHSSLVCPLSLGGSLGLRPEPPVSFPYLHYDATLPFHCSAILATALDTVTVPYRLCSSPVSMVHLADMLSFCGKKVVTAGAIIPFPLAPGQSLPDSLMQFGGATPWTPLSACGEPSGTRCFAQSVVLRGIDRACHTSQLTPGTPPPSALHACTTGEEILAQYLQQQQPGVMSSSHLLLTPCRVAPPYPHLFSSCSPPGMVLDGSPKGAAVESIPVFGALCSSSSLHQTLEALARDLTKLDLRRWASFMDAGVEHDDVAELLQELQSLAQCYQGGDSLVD
UniProt Q9C0I1: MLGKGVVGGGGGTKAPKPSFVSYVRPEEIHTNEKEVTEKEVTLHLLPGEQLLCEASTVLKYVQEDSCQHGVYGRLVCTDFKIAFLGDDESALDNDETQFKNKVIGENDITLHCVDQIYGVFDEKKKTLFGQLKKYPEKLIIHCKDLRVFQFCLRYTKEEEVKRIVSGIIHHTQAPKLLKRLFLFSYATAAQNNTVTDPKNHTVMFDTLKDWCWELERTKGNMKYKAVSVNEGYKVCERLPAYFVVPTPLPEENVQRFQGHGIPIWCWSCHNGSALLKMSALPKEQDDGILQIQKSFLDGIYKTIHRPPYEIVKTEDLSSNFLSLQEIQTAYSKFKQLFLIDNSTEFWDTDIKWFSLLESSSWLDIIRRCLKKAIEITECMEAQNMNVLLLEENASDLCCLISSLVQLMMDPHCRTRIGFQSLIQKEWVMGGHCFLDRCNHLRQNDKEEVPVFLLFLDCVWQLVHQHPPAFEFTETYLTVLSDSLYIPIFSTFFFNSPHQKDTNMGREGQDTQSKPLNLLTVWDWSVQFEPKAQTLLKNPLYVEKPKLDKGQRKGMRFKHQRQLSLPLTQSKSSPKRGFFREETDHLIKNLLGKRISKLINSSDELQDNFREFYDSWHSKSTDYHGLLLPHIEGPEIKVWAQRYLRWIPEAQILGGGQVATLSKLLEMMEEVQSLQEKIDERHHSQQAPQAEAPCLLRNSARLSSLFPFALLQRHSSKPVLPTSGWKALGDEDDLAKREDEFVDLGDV
UniProt Q9BQG0: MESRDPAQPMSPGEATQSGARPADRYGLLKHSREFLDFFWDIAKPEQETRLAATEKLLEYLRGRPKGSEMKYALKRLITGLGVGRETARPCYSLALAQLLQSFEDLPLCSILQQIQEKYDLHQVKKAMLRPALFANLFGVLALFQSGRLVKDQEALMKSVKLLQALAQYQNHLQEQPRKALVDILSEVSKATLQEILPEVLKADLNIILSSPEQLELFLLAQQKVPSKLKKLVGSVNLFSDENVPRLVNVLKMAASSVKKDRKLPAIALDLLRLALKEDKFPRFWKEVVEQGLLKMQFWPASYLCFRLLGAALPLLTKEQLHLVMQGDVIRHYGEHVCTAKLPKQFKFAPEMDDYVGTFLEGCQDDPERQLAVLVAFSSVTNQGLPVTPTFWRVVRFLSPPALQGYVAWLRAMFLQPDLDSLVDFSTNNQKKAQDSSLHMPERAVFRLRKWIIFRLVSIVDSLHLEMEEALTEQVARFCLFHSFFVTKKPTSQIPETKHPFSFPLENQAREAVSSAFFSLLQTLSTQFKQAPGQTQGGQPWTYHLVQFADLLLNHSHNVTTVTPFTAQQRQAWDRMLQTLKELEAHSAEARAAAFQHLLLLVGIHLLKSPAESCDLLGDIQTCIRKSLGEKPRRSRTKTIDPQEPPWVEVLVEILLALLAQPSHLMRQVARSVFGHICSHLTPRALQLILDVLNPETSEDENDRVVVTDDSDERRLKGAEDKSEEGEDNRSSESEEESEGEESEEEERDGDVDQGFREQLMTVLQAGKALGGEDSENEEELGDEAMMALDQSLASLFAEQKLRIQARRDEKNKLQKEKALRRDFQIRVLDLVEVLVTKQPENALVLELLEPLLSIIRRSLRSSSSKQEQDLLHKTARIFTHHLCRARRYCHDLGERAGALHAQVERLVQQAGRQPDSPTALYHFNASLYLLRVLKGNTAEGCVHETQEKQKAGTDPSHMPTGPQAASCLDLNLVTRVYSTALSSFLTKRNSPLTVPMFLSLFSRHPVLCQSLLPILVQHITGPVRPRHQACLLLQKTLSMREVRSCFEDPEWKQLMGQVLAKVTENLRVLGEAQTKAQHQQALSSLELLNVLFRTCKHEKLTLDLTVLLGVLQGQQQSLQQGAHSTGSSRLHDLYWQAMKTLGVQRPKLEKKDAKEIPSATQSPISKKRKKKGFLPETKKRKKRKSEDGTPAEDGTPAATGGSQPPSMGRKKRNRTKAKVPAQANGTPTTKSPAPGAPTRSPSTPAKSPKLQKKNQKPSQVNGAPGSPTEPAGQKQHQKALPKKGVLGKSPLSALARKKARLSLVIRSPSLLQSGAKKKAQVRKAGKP
UniProt P11586, whole entry, looked up: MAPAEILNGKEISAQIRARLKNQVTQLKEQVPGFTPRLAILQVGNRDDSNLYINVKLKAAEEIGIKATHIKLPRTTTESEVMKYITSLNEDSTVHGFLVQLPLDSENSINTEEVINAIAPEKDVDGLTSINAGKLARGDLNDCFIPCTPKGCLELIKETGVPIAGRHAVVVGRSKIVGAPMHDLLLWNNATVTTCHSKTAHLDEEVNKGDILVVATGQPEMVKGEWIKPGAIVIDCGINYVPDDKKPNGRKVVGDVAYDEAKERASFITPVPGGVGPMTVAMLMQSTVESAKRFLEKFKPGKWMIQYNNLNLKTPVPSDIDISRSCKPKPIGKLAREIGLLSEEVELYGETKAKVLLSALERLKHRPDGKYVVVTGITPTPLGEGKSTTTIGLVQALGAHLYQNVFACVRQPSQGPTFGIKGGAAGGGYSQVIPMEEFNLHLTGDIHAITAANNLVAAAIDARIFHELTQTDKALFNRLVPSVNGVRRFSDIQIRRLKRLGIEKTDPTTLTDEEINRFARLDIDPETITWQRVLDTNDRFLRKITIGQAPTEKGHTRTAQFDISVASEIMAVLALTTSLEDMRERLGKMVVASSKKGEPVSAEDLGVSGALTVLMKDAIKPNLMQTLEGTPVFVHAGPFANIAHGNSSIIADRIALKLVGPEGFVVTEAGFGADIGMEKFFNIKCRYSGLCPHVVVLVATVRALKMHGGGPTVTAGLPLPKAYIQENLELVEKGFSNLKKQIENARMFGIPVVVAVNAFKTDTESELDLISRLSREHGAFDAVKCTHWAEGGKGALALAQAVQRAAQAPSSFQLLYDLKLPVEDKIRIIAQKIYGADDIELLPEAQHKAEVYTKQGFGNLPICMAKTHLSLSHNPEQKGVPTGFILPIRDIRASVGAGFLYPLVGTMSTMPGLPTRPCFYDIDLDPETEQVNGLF
UniProt P10244: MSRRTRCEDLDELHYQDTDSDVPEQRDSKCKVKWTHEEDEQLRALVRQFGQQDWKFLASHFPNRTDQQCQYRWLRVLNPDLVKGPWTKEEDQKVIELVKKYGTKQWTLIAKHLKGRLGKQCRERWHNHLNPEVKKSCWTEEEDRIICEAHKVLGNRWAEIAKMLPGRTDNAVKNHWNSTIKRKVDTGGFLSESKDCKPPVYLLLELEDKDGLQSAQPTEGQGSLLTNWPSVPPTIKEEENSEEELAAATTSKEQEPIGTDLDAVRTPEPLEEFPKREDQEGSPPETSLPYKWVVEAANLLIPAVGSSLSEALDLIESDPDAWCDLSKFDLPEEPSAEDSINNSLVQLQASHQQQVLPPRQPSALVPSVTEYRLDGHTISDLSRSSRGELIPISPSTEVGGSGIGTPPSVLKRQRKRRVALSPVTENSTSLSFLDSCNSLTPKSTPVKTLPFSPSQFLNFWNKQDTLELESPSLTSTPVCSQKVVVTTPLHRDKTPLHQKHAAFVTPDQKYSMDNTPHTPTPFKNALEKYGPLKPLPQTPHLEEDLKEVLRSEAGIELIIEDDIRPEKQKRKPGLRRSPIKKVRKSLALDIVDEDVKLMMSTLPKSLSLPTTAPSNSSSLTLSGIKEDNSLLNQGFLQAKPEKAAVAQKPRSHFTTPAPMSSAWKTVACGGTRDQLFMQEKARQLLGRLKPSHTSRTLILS
UniProt P42285: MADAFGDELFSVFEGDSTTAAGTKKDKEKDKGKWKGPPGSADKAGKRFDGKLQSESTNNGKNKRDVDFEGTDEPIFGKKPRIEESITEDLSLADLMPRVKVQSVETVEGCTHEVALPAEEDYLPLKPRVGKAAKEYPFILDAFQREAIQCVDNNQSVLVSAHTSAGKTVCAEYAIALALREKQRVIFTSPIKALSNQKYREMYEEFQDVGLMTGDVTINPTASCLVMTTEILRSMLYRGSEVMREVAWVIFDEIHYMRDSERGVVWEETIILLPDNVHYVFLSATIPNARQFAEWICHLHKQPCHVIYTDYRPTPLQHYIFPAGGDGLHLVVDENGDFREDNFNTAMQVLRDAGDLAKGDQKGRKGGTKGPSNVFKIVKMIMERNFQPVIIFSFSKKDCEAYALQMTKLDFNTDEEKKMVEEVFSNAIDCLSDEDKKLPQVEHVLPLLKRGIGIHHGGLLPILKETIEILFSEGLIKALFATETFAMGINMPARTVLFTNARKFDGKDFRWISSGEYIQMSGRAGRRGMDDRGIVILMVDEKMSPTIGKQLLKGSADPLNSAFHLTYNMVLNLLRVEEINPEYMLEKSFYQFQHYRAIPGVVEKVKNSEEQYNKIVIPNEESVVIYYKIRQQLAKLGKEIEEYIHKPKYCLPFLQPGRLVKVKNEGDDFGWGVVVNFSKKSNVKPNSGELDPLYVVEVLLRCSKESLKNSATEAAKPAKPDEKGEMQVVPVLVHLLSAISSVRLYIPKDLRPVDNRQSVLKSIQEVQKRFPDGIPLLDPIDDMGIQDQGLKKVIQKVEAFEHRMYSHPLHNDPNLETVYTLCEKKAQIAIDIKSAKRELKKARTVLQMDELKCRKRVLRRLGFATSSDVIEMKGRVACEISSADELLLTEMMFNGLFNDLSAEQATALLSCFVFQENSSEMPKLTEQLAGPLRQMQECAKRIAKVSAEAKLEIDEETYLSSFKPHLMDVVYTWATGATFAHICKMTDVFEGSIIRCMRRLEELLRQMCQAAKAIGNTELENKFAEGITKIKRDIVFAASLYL

Compound: CC1Cc2ccccc2N1C(=O)C1CCCN(C1)C(=O)CCl (mixture of isomers) [TRIM25 ligand 11 (diastereomer mixture)]
Test: probe-labelled cysteine peptide fold change vs DMSO (competition) (log2 fold change); higher = less target engagement (more negative = stronger competition)
Details: THP-1, incubation time: 4 h
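Note: competitive chemoproteomic profiling in live THP-1 cells with an iodoacetamide desthiobiotin (IA-DTB) probe, comparing probe-labelled peptide intensities in compound-treated cells against DMSO-treated controls.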

Target | probe-labelled cysteine peptide fold change (10 µM) | probe-labelled cysteine peptide fold change (50 µM)
MTMR3_Q13615_81_ESLVNVPLQLIESVECR (UniProt Q13615) | 0.553 | -0.00809
MRPS35_P82673_130_DFCTEWPAALDSDEK (UniProt P82673) | -0.00899 | 0.0431
MYCBP2_O75592_4356_EHTGKPTTSSSEACR (UniProt O75592) | -0.0372 | -0.0921
MRPS5_P82675_377_GLHVVEIREECGPLPIVVASPR (UniProt P82675) | -0.00459 | -0.0614
MSTO1_Q9BUK6_411_CFAQSVVLR (UniProt Q9BUK6) | 0.0742 | 0.125
MTMR12_Q9C0I1_694_HHSQQAPQAEAPCLLR (UniProt Q9C0I1) | 0.0716 | -0.26
MYCBP2_O75592_4409_NEEHCLPCLHGCDK (UniProt O75592) | -0.0399 | -0.0266
MYCBP2_O75592_3392_MPCLYLQTLAR (UniProt O75592) | 0.0388 | -0.0816
MTPN_P58546_45_KPLHYAADCGQLEILEFLLLK (UniProt P58546) | 0.0367 | 0.0551
MRPS2_Q9Y399_162_DCGEYAHTR (UniProt Q9Y399) | 0.0375 | 0.263
MTMR3_Q13615_188_LCGSYPQELIVPAWITDK (UniProt Q13615) | 0.105 | 0.265
MYBBP1A_Q9BQG0_363_FAPEMDDYVGTFLEGCQDDPER (UniProt Q9BQG0) | 0.0345 | -0.0128
MRPS24_Q96EL2_103_FMWGTFPGCLADQLVLK (UniProt Q96EL2) | 0.183 | 0.203
MTHFD1_P11586_147_GDLNDCFIPCTPK (UniProt P11586) | -0.159 | -0.129
MVP_Q14764_59_HYCTVANPVSR (UniProt Q14764) | 0.00813 | 0.0411
MTHFD1_P11586_691_YSGLCPHVVVLVATVR (UniProt P11586) | -0.188 | 0.0425
MVB12A_Q96EY5_90_SPLPLGFSPVCDPMDSK (UniProt Q96EY5) | -0.167 | -0.188
MYCBP2_O75592_4669+4672_QLEGTECPLHVVHPPTGEEFALGCGVCR (UniProt O75592) | -0.229 | -0.193
MYCBP2_O75592_938_FDCELR (UniProt O75592) | 0.338 | -0.0525

Target | probe-labelled cysteine peptide fold change (10 µM) | probe-labelled cysteine peptide fold change (50 µM)
MTR_Q99707_798_NIVGVVLGCNNFR (UniProt Q99707) | 0.164 | 0.109
MYBL2_P10244_196_DCKPPVYLLLELEDK (UniProt P10244) | 0.118 | -0.0777
MTMR12_Q9C0I1_53_EVTLHLLPGEQLLCEASTVLK (UniProt Q9C0I1) | -0.0998 | -0.173
MYBL2_P10244_69_TDQQCQYR (UniProt P10244) | 0.0172 | 0.222
MTM1_Q13496_242_CSQPLVGMSGK (UniProt Q13496) | -0.0613 | 0.0204
MTREX_P42285_430_MVEEVFSNAIDCLSDEDK (UniProt P42285) | 0.0384 | -0.00135
MTRR_Q9UBK8_64_AIAEEICEQAVVHGFSADLHCISESDKYDLK (UniProt Q9UBK8) | -0.0166 | -0.0337
MYCBP2_O75592_4558_CDAEAGRGDDYDPR (UniProt O75592) | 0.00177 | 0.143
MYCBP2_O75592_3263_QAHPGCGR (UniProt O75592) | 0.168 | 0.105
MRPS17_Q9Y2R5_58_TYFAHDALQQCTVGDIVLLR (UniProt Q9Y2R5) | 0.427 | 0.267
MTHFSD_Q2M296_215_VIATGCK (UniProt Q2M296) | 0.0177 | 0.0734
MRPS30_Q9NP92_393_KNICWGTQSK (UniProt Q9NP92) | -0.218 | -0.27
MSL3P1_P0C860_127_LVQLPCHTNIITILESYVK (UniProt P0C860) | -0.0712 | 0.2
MRPS18A_Q9NVS2_108_KITGLCQEEHR (UniProt Q9NVS2) | -0.059 | 0.0465
MRPL53_Q96EL3_49_STNLNCSVIADVR (UniProt Q96EL3) | 0.0678 | 0.0614
MYD88_Q99836_203_LCVSDRDVLPGTCVWSIASELIEKR (UniProt Q99836) | -0.217 | -0.0311
MRRF_Q96E11_154_SPQLILVNMASFPECTAAAIK (UniProt Q96E11) | -0.379 | -0.279
MSH3_P20585_803_EQLVLDCSAEWLDFLEK (UniProt P20585) | 0.0557 | 0.134
MYBBP1A_Q9BQG0_942_GNTAEGCVHETQEK (UniProt Q9BQG0) | 0.000786 | -0.183

Target | probe-labelled cysteine peptide fold change (10 µM) | probe-labelled cysteine peptide fold change (50 µM)
MTMR3_Q13615_151_EQHGDLCRPGEHVTSR (UniProt Q13615) | 0.123 | 0.0462
MRPS30_Q9NP92_293_TADPCCYGHTQFHLLPDK (UniProt Q9NP92) | 0.126 | 0.12
MRPS10_P82664_142_CLELEHLTGSTADVYLEYIQR (UniProt P82664) | 0.185 | 0.0322
MRPS18C_Q9Y3D5_100_HITGLCGK (UniProt Q9Y3D5) | -0.114 | -0.331
MSH6_P52701_687_SELALSALGGCVFYLK (UniProt P52701) | 0.169 | 0.0844
MYCBP2_O75592_4544_YAYYVCYK (UniProt O75592) | 0.0433 | -0.0266
MYCBP2_O75592_3364_ANALFLLSLSSAAEPSILCYHPAK (UniProt O75592) | 0.0224 | 0.0186
MTPAP_Q9NVV4_82_TVLIHCPEK (UniProt Q9NVV4) | -0.0692 | 0.0357
MSTO1_Q9BUK6_178_SICMIQK (UniProt Q9BUK6) | -0.0566 | 0.107
MYCBP2_O75592_3241_DTICELCGESHPYPVTYHMR (UniProt O75592) | 0.0135 | -0.0261
MYADM_Q96S97_279_SRDVSCSR (UniProt Q96S97) | 1.04 | 1.29
MYCBP2_O75592_4638_EELPHCPAGPK (UniProt O75592) | -0.0878 | -0.171
MTO1_Q9Y2Z2_707_TDQYLCDADR (UniProt Q9Y2Z2) | -0.063 | -0.152
MTMR10_Q9NXD2_104_NLLLGEHDVPLTCIEQIVTVNDHK (UniProt Q9NXD2) | 0.158 | 0.0385
MYB_P10242_78_TDVQCQHR (UniProt P10242) | 0.0273 | 0.0321
MYCBP2_O75592_3786_NITINCVK (UniProt O75592) | -0.237 | 0.117
MSL3_Q8N5Y2_358_HSANCDR (UniProt Q8N5Y2) | -0.0184 | -0.0795
MTMR6_Q9Y217_156_ICETYPR (UniProt Q9Y217) | -0.0193 | 0.0878
